Here are results for twelve compounds from the supplement of paper PMC12009310.

Experiment [1] deals with mIMCD3. The experiment in a line: robust z score of cell number vs plate controls; higher = more cells (less cytotoxic). Conditions: 10 µM, 48 h.
Experiment [2] has as its system mIMCD3. Briefly: robust z score of cilia incidence (% cells with single cilium) vs plate controls; higher = more ciliated cells. The conditions noted are these: 10 µM; 48 h; siRNA: siScr.
Experiment [3] has as its system mIMCD3. The experiment in a line: robust z score of cilia incidence (% cells with single cilium) vs plate controls; higher = more ciliated cells (rescue of cilia loss). Conditions: 10 µM; 48 h; siRNA: siRpgrip1l.
Experiment [4] has as its system mIMCD3. Briefly: robust z cell number difference from vehicle control (robust z score difference); higher = more cells. The conditions noted are these: 10 µM, 48 h.
The subject of experiment [5] is mIMCD3. The experiment in a line: robust z cilia incidence difference from vehicle control (robust z score difference); higher = more ciliated cells. The conditions noted are these: 10 µM; 48 h; siRNA: siScr.
Experiment [6] has as its system mIMCD3. Briefly: robust z cilia incidence difference from vehicle control (robust z score difference); higher = more ciliated cells (rescue). Conditions: 10 µM; 48 h; siRNA: siRpgrip1l.

± gives the standard deviation of the averaged measurements. Some of the results follow. Plates or batches differ in their baseline, so values are only roughly comparable.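 Cells from a mouse kidney inner medullary collecting duct line received siRNA against the ciliary gene Rpgrip1l or a non-targeting control. Primary scores are two-run means relative to batch controls. Follow-up hits increased cilia by 2 or more over their matched control; compounds reducing cell number by at least 2 were dropped. The cells are a mouse kidney inner medullary collecting duct line, silenced either for the ciliary gene Rpgrip1l or with a non-targeting control siRNA.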

For the compound `CCCN(CCC)C1Cc2cc(OC)c(OC)cc2C1`, the “robust z score of cell number” value was -83.7 ± 61 in experiment [1] (siRNA: siRpgrip1l) and -5.09 ± 0.47 in experiment [1] (siRNA: siScr). Further, the “robust z score of cilia incidence” value was -5.09 ± 6.5 in experiment [2] and -14.2 ± 3 in experiment [3].

Regarding `Fc1ccc(C(OCCN2CCN(CCCc3ccccc3)CC2)c2ccc(F)cc2)cc1`, the “robust z score of cell number” value in experiment [1] (siRNA: siRpgrip1l) is -126 ± 100; in experiment [1] (siRNA: siScr) it was -83.6 ± 45. Besides, the “robust z score of cilia incidence” value was -27.1 ± 24 in experiment [2] and -48.8 ± 26 in experiment [3].

For the compound `C[C@@H]1CC[C@H]2[C@@H](C)C(=O)O[C@@H]3O[C@@]4(C)CC[C@@H]1[C@]32OO4` [Artemisinin], the “robust z score of cell number” value in experiment [1] (siRNA: siRpgrip1l) was -11.5 ± 4.4; in experiment [1] (siRNA: siScr) it was -52.4 ± 44. Further, the “robust z score of cilia incidence” value is 1.61 ± 4.9 in experiment [2] and -18.5 ± 1.6 in experiment [3].

On to `O=C1CCCN1CC#CCN1CCCC1` [Oxotremorine sesquifumarate], for which the “robust z score of cell number” value in experiment [1] (siRNA: siRpgrip1l) was 1.65 ± 1.1; in experiment [1] (siRNA: siScr), -3.63 ± 1.9. For the same compound, the “robust z cell number difference” value in experiment [4] (siRNA: siRpgrip1l) is 1.57; in experiment [4] (siRNA: siScr), -0.0196 ± 0.63. The “robust z score of cilia incidence” value in experiment [2] was -0.521 ± 0.51; in experiment [3], -4 ± 4.5. For the same compound, the “robust z cilia incidence difference” value in experiment [5] is 2.9 ± 1.5; in experiment [6], 1.77.

For `O=C(O)Cc1cccnc1C(=O)O` [Homoquinolinic acid], the “robust z score of cell number” value in experiment [1] (siRNA: siRpgrip1l) is -5.56 ± 10; in experiment [1] (siRNA: siScr), 0.22 ± 1.2. For the same compound, the “robust z score of cilia incidence” value is 0.707 ± 0.21 in experiment [2] and -9.1 ± 7.1 in experiment [3].

Consider `CCCCC1(C2CCCC2)Cc2cc(OCCCC(=O)O)c(Cl)c(Cl)c2C1=O` (stereo not drawn), for which the results for the “robust z score of cell number” value in experiment [1] (siRNA: siRpgrip1l) and in experiment [1] (siRNA: siScr) were -189 ± 210 and -43.8 ± 11, respectively. Besides, the “robust z score of cilia incidence” value is -8.51 ± 5.4 in experiment [2] and -172 ± 170 in experiment [3].

In the case of `C=C(C)[C@H]1CN[C@H](C(=O)O)[C@H]1CC(=O)O` [Kainic acid], the “robust z score of cell number” value in experiment [1] (siRNA: siRpgrip1l) worked out at 1.36 ± 4.9; in experiment [1] (siRNA: siScr), 1.28 ± 3.1. The “robust z score of cilia incidence” value in experiment [2] is -3.27 ± 2.2; in experiment [3], -10.5 ± 8.7.

Consider `O=c1ccc2[nH]cc(C3=CCNCC3)c2[nH]1`, for which the “robust z score of cell number” value in experiment [1] (siRNA: siRpgrip1l) was -5.92 ± 2.7; in experiment [1] (siRNA: siScr), -0.259 ± 2. In addition, the results for the “robust z score of cilia incidence” value in experiment [2] and in experiment [3] were -1.99 ± 0.84 and -15.2 ± 0.8, respectively.

`COc1cc2c(cc1OC)C1CC(=O)C(CC(C)C)CN1CC2` (stereo not drawn) [Tetrabenazine]: the “robust z score of cell number” value in experiment [1] (siRNA: siRpgrip1l) is -2.15 ± 1.4; in experiment [1] (siRNA: siScr) it was -9.65 ± 12. The results for the “robust z cell number difference” value in experiment [4] (siRNA: siRpgrip1l) and in experiment [4] (siRNA: siScr) were -15.9 and -7.87 ± 11, respectively. The “robust z score of cilia incidence” value in experiment [2] is 1.3 ± 2.6; in experiment [3] it was -6.69 ± 8.8. In addition, the “robust z cilia incidence difference” value in experiment [5] was -3.2 ± 7.4; in experiment [6], -24.2.

For the compound `O=c1cccc2n1C[C@@H]1CNC[C@H]2C1` [(-)-Cytisine], the figures for the “robust z score of cell number” value in experiment [1] (siRNA: siRpgrip1l) and in experiment [1] (siRNA: siScr) were 4.58 ± 8.8 and -2.64 ± 1.5, respectively. In addition, the “robust z cell number difference” value in experiment [4] (siRNA: siRpgrip1l) was found to be 0.678; in experiment [4] (siRNA: siScr), 0.461 ± 2.1. Further, the “robust z score of cilia incidence” value in experiment [2] was 3.67 ± 1.4; in experiment [3] it was -7.23 ± 5.2. Also, the entries for the “robust z cilia incidence difference” value in experiment [5] and in experiment [6] were 3.77 ± 4.9 and 0.269, respectively.

With `CO[C@]12C[C@@H](COC(=O)c3cncc(Br)c3)CN(C)[C@@H]1Cc1cn(C)c3cccc2c13` [Nicergoline], the “robust z score of cell number” value in experiment [1] (siRNA: siRpgrip1l) was -10.1 ± 13; in experiment [1] (siRNA: siScr), 10.2 ± 19. Also, the “robust z cell number difference” value is -2.02 in experiment [4] (siRNA: siRpgrip1l) and -1.52 ± 3.3 in experiment [4] (siRNA: siScr). Besides, the results for the “robust z score of cilia incidence” value in experiment [2] and in experiment [3] were -0.128 ± 0.61 and -7.63 ± 7.2, respectively. In addition, the results for the “robust z cilia incidence difference” value in experiment [5] and in experiment [6] were -2.21 ± 7 and -0.223, respectively.

Consider `N.N.[Cl][Pt][Cl]` [Cisplatin], for which the figures for the “robust z score of cell number” value in experiment [1] (siRNA: siRpgrip1l) and in experiment [1] (siRNA: siScr) were -18.3 ± 26 and -4.37 ± 1.6, respectively. Further, the entries for the “robust z cell number difference” value in experiment [4] (siRNA: siRpgrip1l) and in experiment [4] (siRNA: siScr) were -1.26 and -0.964 ± 0.42, respectively. The “robust z score of cilia incidence” value in experiment [2] is 3.66 ± 1.5; in experiment [3] it was -9.52 ± 0.25. The “robust z cilia incidence difference” value in experiment [5] was 3.47 ± 3.1; in experiment [6], -2.97.
